These are yes or no findings as the source states them, for the method shown. Binding seen in cells or lysates may run through a third protein. Some results given as binding are weak or reduced against the parent protein; the word gives no strength. Sequences can lack the tags named with a protein.

Our source for the binding values is doi:10.1101/2023.11.21.567992.

The target in experiment [1] is T1, KIF2C (human (endogenous in U2OS)) (UniProt Q99661).
T1 sequence: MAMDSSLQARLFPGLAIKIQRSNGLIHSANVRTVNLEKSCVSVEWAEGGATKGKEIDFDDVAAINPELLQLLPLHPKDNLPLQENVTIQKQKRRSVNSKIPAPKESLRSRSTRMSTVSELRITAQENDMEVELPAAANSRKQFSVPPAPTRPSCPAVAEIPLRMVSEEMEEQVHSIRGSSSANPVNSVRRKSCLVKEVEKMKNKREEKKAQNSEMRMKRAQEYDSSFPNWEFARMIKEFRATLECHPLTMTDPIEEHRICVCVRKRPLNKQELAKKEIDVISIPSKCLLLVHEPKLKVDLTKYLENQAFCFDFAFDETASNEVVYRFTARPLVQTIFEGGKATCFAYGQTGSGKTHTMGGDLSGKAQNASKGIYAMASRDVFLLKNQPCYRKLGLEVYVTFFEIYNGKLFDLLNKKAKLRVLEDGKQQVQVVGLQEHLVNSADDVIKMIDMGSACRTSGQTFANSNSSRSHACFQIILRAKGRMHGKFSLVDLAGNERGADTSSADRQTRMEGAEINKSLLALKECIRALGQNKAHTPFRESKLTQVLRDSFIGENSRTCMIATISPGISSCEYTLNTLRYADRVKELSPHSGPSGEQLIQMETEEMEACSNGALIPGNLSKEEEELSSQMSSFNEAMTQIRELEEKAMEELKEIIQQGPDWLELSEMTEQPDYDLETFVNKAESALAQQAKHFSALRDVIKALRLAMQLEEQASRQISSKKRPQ
Nature of the experiment: co-IP.

In experiment [2] the target is T2, FLAG-tagged Nek2A (UniProt P51955).
T2 sequence: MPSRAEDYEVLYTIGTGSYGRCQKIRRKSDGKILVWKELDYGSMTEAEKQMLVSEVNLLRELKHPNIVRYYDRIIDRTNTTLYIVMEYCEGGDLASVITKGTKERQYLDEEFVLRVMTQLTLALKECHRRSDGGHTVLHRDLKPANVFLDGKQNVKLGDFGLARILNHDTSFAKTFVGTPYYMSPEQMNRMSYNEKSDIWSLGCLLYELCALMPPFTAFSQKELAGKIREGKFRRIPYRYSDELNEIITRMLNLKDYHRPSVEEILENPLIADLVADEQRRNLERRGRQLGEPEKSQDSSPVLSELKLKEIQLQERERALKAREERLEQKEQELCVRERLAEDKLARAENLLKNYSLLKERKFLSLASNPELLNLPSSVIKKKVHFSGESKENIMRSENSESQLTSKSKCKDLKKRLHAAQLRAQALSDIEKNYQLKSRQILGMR
Nature of the experiment: co-IP.

B1: FLAG-tagged Nek2A (enzyme, UniProt P51955 1-445)
chain: T2 sequence
Regarding B1, in experiment [1], the binding entry is given as “binds”.

B2: KIF2C (protein, UniProt Q99661 1-725)
chain: T1 sequence
With B2, the binding result in experiment [2] is “binds”.
